Test results as given in article doi:10.1101/2022.01.14.476433.
These are yes or no findings as the source states them, for the method shown. For some assays here: Binding seen in cells or lysates may run through a third protein. Some binding calls cover weakened binding; strength is not graded here. For some assays here: Where a sequence is shown, tags or fusion partners need not be part of it.

The chains behind the UniProt entries cited, without tags or fusion partners. Where a name states a change or a piece, a line headed by the entry shows the natural chain unless it says otherwise. Residues count along the entry.
UniProt P37173: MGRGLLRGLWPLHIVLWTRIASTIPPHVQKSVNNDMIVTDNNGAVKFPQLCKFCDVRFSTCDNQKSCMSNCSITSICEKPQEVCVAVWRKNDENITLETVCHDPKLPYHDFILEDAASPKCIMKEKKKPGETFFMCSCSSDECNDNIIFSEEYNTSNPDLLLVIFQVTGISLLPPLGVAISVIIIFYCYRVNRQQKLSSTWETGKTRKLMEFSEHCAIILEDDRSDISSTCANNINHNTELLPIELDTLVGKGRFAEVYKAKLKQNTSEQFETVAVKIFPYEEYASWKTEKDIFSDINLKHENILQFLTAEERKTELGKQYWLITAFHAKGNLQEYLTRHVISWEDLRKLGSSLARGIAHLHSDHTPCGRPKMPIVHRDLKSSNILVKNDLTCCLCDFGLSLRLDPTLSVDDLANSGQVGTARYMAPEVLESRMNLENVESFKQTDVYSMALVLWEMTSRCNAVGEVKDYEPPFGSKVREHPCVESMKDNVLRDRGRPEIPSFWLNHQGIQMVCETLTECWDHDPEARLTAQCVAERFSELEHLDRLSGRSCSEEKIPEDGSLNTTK
Transforming growth factor-β receptor type 2 (TGF-β-R2), endogenous (human (endogenous in HUVECs)): residues 23-567 of P37173
GST-TGF-β-R2 (23–166 amino acids): residues 23-166 of P37173

Columns and labels:
[1] = molecular target: Transforming growth factor-β receptor type 2 (TGF-β-R2), endogenous (human (endogenous in HUVECs)) (UniProt P37173); assay: co-IP
[2] = molecular target: GST-TGF-β-R2 (23–166 amino acids) (UniProt P37173); assay: pull-down

Row | binding [1] | binding [2] | Binder
1 | binds | – | Heparin-binding protein (HBP) in cell lysate (protein, UniProt P20160 27-251) IVGGRKARPRQFPFLASIQNQGRHFCGGALIHARFVMTAASCFQSQNPGVSTVVLGAYDLRRRERQSRQTFSISSMSENGYDPQQNLNDLMLLQLDREANLTSSVTILPLPLQNATVEAGTRCQVAGWGSQRSGGRLSRFPRFVNVTVTPEDQCRPNNVCTGVLTRRGGICNGDGGTPLVCEGLAHGVASFSLGPCGRGPDFFTRVALFRDWIDGVLNNPGPGPA
2 | – | binds | Recombinant human heparin-binding protein (His-HBP) (protein, UniProt P20160 27-251) IVGGRKARPRQFPFLASIQNQGRHFCGGALIHARFVMTAASCFQSQNPGVSTVVLGAYDLRRRERQSRQTFSISSMSENGYDPQQNLNDLMLLQLDREANLTSSVTILPLPLQNATVEAGTRCQVAGWGSQRSGGRLSRFPRFVNVTVTPEDQCRPNNVCTGVLTRRGGICNGDGGTPLVCEGLAHGVASFSLGPCGRGPDFFTRVALFRDWIDGVLNNPGPGPA
